The list shows a part of the results. Residues, ends and D or L forms follow the SMILES beside them. *: point of attachment. Cbz = O=C(OCc1ccccc1)*
Columns and labels:
Experiment in all cases: log2 fold change, soluble protein after heating vs DMSO (PISA); higher = thermal stabilisation; K562 cells, 10 uM, 30 min; active = over 0.2 and 3.5 SD of the protein, either way, in both replicates (recomputed)
IRAK-1-4 Inhibitor I = compound: C1COCCN1CCN2C3=CC=CC=C3N=C2NC(=O)C4=CC(=CC=C4)[N+](=O)[O-] [IRAK-1-4 Inhibitor I]
Outline: (§1)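 Aliquots of K562 cells (2×10^6 cells/mL) treated with 10 μM compound for 30 min were heated for 3 min over 48°C-58°C. After pooling and extraction in PBS with 0.5% NP-40 at 4°C, soluble protein from a 21,000xg, 90 min spin was quantified by TMTpro 16plex LC-MS/MS with channel sums equalised. Thermal stability is expressed against control samples, from duplicates, as a log2 fold change.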

The chains behind the UniProt entries cited, without tags or fusion partners. Where a name states a change or a piece, a line headed by the entry shows the natural chain unless it says otherwise.
UniProt Q9Y266: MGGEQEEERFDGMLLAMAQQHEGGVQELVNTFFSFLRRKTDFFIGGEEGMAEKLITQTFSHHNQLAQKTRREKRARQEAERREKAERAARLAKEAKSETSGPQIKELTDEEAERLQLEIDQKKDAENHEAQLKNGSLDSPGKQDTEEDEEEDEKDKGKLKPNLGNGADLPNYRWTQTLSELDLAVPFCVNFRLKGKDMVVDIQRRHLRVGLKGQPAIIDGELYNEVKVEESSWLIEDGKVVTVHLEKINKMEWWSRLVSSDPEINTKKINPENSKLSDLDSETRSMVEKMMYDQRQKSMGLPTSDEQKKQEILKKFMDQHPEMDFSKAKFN
UniProt Q8IVD9: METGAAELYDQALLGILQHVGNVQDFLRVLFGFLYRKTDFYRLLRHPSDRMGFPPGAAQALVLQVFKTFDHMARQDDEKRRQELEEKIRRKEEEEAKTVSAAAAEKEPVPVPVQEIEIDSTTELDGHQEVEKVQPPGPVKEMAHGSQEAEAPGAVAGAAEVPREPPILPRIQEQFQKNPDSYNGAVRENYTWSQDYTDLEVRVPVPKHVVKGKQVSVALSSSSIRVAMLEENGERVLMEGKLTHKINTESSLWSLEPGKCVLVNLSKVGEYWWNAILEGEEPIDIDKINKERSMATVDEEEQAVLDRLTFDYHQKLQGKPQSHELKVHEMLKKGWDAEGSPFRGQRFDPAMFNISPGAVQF
UniProt Q9NTK5, whole entry, looked up: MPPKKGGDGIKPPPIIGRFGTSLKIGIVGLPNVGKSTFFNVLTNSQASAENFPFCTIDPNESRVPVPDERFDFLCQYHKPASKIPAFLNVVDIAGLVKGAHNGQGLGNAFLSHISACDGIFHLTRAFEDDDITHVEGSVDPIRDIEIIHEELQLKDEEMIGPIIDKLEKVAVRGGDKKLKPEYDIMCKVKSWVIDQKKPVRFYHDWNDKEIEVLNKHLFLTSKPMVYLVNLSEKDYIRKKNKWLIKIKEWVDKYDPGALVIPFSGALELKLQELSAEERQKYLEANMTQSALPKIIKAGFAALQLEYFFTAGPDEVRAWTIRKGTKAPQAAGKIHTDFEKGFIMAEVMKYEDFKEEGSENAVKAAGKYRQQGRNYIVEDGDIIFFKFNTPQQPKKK
UniProt Q6GQQ9: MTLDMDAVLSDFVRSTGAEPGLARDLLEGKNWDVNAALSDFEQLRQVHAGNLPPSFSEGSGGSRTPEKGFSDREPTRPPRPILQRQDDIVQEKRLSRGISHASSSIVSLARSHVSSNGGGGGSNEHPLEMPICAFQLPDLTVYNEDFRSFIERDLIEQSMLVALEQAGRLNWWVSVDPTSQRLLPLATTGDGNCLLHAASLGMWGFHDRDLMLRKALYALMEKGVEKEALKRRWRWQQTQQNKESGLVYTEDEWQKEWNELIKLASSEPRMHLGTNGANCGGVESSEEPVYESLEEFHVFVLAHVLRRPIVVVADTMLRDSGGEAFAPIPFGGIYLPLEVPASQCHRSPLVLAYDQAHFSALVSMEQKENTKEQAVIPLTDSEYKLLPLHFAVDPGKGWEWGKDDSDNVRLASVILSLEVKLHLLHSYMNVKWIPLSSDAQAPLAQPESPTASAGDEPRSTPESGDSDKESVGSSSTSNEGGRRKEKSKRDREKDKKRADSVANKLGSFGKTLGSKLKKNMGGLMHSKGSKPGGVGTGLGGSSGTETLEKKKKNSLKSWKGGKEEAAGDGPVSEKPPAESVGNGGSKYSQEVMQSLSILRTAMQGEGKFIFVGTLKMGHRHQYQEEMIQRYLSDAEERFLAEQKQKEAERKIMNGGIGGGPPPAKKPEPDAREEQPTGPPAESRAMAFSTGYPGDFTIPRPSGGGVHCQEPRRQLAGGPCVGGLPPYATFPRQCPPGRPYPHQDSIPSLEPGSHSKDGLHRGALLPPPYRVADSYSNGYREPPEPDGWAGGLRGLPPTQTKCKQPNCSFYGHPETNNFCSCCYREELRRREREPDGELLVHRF
UniProt Q92882: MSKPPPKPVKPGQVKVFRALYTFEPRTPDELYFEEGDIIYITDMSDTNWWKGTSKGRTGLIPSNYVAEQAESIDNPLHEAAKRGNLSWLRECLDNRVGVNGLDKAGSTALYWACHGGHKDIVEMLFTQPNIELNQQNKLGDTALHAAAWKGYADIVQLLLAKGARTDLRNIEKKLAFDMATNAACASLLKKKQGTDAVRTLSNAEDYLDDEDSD
UniProt O60313: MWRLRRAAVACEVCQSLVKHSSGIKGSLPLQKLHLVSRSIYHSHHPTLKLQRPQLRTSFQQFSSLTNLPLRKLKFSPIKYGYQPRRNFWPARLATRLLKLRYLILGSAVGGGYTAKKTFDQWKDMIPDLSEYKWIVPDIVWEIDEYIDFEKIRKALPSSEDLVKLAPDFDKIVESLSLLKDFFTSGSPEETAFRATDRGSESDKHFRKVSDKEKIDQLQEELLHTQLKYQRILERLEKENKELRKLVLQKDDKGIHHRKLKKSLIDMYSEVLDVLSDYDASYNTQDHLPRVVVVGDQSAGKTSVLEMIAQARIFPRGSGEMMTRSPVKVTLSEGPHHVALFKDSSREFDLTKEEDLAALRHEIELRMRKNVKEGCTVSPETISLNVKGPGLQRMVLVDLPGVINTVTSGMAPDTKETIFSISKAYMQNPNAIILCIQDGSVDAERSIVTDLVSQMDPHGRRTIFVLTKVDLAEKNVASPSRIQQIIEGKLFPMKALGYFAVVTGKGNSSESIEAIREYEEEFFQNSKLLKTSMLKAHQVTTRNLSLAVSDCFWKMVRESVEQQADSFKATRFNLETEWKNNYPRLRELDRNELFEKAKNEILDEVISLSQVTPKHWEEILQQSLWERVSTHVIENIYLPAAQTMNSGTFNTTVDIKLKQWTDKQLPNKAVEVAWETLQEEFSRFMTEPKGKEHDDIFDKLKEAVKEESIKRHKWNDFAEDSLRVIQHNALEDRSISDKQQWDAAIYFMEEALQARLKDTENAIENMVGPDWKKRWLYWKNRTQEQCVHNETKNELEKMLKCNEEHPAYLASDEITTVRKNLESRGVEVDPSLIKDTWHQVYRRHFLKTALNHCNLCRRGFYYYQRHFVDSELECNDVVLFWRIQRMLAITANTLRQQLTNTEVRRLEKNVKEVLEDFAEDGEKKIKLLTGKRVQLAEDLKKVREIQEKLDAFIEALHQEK
UniProt Q9NRP0: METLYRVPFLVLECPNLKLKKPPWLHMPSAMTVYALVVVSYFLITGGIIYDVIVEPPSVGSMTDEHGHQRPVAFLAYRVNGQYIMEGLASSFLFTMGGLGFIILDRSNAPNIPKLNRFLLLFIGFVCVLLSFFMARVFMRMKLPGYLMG
UniProt Q8WVJ2: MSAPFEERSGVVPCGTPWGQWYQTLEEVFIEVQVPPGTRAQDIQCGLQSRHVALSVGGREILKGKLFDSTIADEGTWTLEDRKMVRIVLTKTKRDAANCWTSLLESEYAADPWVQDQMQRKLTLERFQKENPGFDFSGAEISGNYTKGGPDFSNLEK
UniProt P49790, whole entry, looked up: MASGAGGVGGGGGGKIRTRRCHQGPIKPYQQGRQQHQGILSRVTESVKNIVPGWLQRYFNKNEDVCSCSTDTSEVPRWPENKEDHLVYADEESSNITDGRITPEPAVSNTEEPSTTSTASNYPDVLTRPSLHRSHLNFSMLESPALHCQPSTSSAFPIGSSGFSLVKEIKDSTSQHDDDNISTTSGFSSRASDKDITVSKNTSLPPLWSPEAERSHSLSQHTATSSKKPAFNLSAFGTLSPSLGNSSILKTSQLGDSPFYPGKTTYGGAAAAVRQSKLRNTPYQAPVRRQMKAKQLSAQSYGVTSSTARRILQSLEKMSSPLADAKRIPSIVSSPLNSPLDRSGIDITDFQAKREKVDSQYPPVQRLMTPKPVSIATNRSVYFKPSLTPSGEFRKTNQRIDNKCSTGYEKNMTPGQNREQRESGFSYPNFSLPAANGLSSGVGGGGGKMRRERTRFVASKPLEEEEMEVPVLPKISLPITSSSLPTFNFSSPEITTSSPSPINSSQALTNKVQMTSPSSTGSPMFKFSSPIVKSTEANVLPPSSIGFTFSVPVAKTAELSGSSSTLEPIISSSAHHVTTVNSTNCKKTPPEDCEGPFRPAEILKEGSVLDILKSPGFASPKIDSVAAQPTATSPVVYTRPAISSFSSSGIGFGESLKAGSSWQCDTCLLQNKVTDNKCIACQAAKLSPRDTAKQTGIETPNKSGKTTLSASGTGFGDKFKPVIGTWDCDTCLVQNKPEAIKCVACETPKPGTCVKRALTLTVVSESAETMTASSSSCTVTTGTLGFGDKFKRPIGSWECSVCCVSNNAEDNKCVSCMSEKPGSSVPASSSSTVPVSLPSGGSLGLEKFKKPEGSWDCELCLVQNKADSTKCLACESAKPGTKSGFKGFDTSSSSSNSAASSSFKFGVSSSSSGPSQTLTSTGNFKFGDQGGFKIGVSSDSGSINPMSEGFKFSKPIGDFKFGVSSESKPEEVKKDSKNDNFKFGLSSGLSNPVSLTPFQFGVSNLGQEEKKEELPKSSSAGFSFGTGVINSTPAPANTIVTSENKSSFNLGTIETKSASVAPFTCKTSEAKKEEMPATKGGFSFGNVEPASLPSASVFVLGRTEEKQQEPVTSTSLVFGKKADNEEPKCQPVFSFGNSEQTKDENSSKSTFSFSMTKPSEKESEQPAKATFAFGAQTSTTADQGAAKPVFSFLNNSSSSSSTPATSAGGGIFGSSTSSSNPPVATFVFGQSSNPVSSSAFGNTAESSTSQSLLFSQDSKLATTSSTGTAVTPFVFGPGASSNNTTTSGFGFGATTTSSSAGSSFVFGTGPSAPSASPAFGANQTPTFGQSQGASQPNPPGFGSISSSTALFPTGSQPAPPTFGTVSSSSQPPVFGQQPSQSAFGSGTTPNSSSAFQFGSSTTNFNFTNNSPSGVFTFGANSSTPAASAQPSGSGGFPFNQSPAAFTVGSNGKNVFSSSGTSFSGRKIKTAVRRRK
UniProt Q86WC4: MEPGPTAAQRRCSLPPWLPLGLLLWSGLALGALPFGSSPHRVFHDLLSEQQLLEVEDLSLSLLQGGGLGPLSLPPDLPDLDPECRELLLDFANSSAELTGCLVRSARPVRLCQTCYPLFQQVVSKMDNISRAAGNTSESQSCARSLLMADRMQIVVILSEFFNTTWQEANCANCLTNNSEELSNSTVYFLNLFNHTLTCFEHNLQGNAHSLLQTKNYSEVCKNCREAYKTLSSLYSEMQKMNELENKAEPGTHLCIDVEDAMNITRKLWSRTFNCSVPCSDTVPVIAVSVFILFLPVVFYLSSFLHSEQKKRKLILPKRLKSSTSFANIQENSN
UniProt Q9H857: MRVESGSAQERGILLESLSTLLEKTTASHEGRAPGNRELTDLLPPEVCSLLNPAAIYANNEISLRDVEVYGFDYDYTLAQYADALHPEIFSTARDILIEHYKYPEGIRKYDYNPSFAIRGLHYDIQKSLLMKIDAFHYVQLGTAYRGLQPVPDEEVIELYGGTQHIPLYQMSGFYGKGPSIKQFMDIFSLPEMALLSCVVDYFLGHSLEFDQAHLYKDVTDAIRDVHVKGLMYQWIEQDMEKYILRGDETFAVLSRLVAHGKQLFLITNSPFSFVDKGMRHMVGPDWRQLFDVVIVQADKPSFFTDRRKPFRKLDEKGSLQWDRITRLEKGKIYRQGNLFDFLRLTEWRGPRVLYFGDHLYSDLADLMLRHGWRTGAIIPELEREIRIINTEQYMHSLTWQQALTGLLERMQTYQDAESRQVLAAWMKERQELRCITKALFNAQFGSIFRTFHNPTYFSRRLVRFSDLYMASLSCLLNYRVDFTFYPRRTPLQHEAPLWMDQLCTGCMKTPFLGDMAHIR
UniProt Q32P28: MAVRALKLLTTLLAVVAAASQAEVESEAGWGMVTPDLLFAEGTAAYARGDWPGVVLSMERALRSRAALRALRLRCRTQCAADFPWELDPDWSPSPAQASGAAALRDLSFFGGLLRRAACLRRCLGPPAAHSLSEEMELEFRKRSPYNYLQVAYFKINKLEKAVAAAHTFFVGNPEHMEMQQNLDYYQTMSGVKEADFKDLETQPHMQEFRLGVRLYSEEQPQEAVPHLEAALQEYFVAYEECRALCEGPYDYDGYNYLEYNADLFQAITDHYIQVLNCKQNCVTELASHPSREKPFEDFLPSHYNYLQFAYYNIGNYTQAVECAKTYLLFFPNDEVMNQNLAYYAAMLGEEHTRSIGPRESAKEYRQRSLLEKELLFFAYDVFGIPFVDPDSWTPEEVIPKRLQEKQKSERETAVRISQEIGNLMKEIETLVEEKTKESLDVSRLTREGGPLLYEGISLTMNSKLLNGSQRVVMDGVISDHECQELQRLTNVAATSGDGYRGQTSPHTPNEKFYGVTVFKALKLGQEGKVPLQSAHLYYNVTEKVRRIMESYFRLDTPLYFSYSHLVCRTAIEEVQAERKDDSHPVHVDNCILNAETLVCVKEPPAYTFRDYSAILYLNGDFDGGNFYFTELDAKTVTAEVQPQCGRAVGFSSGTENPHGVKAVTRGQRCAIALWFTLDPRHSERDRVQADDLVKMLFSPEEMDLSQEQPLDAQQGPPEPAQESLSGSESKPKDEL

ibrutinib = compound: C=CC(=O)N1CCC[C@@H](n2nc(-c3ccc(Oc4ccccc4)cc3)c3c(N)ncnc32)C1 [ibrutinib]
Outline: as §1

[1] = compound: CC(=O)c1cnc2ccc(-c3cc(Cl)c(O)c(Cl)c3)nc2c1N[C@H]1CC[C@H](CN(C)C)CC1
Outline: as §1

ralimetinib = compound: CC(C)(C)Cn1c(N)nc2ccc(-c3[nH]c(C(C)(C)C)nc3-c3ccc(F)cc3)nc21 [ralimetinib]
Outline: as §1

[2] = compound: CC(C)(O)CC(=O)NCCn1ccc2ncnc(Nc3ccc(Oc4cccc(C(F)(F)F)c4)c(Cl)c3)c21
Outline: as §1

[3] = compound: CC(C)C1=C2N=C(C=C(N2N=C1)NCC3=CC=CC=C3)NCCCCCCN
Outline: as §1

[4] = compound: CC(C)C[C@@H](C=O)NC(=O)[C@H](CC(C)C)NC(=O)[C@H](CC(C)C)NC(=O)OCc1ccccc1
Outline: as §1

pinometostat = compound: CC(C)N(C[C@H]1O[C@@H](n2cnc3c(N)ncnc32)[C@H](O)[C@@H]1O)[C@H]1C[C@@H](CCc2nc3cc(C(C)(C)C)ccc3[nH]2)C1 [pinometostat]
Outline: as §1

[5] = compound: CC1=C(C(CC(=O)N1)C2=CC=C(C=C2)C(F)(F)F)C(=O)NC3=C(C=C4C(=C3)C=NN4)F
Outline: as §1

[6] = compound: CC1=C(C2=C(C=C1)C(=O)C3=CC=CC=C3N2CCCN)C
Outline: as §1

[7] = compound: CC1=C(C=C(C=C1)NC(=O)C2=CC(=CC=C2)C(C)(C)C#N)NC3=CC4=C(C=C3)N=CN(C4=O)C
Outline: as §1

[8] = compound: CC1=C(C=C(C=C1)NC(=O)C2=CC(=CC=C2)N(C)C)NC(=O)C3=CC=C(C=C3)O
Outline: as §1

[9] = compound: CC1=CC=C(C=C1)SC2=C3C=C(SC3=CN=C2)C(=O)N
Outline: as §1

[10] = compound: CC1=NC(=CC=C1)C2=C(N=C(N2)C(C)(C)C)C3=CC4=NC=CN=C4C=C3
Outline: as §1

Nexturastat A = compound: CCCCN(Cc1ccc(C(=O)NO)cc1)C(=O)Nc1ccccc1 [Nexturastat A]
Outline: as §1

vemurafenib = compound: CCCS(=O)(=O)Nc1ccc(F)c(C(=O)c2c[nH]c3ncc(-c4ccc(Cl)cc4)cc23)c1F [vemurafenib]
Outline: as §1

[11] = compound: CCCS(=O)(=O)Nc1ccc(F)c(C(=O)c2c[nH]c3ncc(Cl)cc23)c1F
Outline: as §1

[12] = compound: CCCc1cc(C)[nH]c(=O)c1CNC(=O)c1cc(-c2ccnc(N3CCN(C)CC3)c2)cc2c1cnn2C(C)C
Outline: as §1

givinostat = compound: CCN(CC)Cc1ccc2cc(COC(=O)Nc3ccc(C(=O)NO)cc3)ccc2c1 [givinostat]
Outline: as §1

barasertib = compound: CCN(CCCOc1ccc2c(Nc3cc(CC(=O)Nc4cccc(F)c4)[nH]n3)ncnc2c1)CCOP(=O)(O)O [barasertib]
Outline: as §1

Measured: log2 fold change

NUDC (UniProt Q9Y266)
inactive: IRAK-1-4 Inhibitor I 0.053 | ibrutinib -0.017 | [1] -0.007 | ralimetinib -0.029 | [2] -0.031 | [3] -0.019 | [4] 0.011 | pinometostat -0.007 | [5] 0 | [6] 0.012 | [7] 0.001 | [8] 0.014 | [9] -0.008 | [10] 0.034 | Nexturastat A -0.088 | vemurafenib 0.016 | [11] 0.027 | [12] -0.048 | givinostat -0.006 | barasertib 0.028

NUDCD3 (UniProt Q8IVD9)
inactive: IRAK-1-4 Inhibitor I -0.045 | ibrutinib -0.045 | [1] -0.005 | ralimetinib -0.022 | [2] -0.062 | [3] -0.13 | [4] 0.036 | pinometostat 0.021 | [5] -0.004 | [6] -0.034 | [7] 0.001 | [8] -0.106 | [9] 0.005 | [10] -0.012 | Nexturastat A -0.019 | vemurafenib 0.009 | [11] 0.03 | [12] 0 | givinostat 0.022 | barasertib 0.058

OLA1 (UniProt Q9NTK5)
inactive: IRAK-1-4 Inhibitor I 0.04 | ibrutinib -0.008 | [1] -0.019 | ralimetinib -0.058 | [2] -0.056 | [3] 0.032 | [4] 0.023 | pinometostat -0.018 | [5] 0.005 | [6] 0.008 | [7] -0.004 | [8] -0.01 | [9] 0.036 | [10] 0.035 | Nexturastat A -0.099 | vemurafenib 0.022 | [11] 0.068 | [12] -0.015 | givinostat -0.018 | barasertib 0.006

OTUD7B (UniProt Q6GQQ9)
inactive: IRAK-1-4 Inhibitor I -0.16 | ibrutinib -0.123 | [1] -0.183 | ralimetinib 0.051 | [2] -0.092 | [3] -0.283 | [4] -0.18 | pinometostat -0.178 | [5] -0.104 | [6] 0.081 | [7] 0.041 | [8] -0.028 | [9] -0.019 | [10] -0.14 | Nexturastat A -0.03 | vemurafenib -0.001 | [11] 0.127 | [12] -0.051 | givinostat 0.133 | barasertib 0.075

OSTF1 (UniProt Q92882)
inactive: IRAK-1-4 Inhibitor I -0.015 | ibrutinib -0.1 | [1] -0.1 | ralimetinib 0.029 | [2] -0.048 | [3] -0.183 | [4] -0.002 | pinometostat 0.056 | [5] 0 | [6] 0.067 | [7] -0.157 | [8] 0.009 | [9] -0.039 | [10] 0.008 | Nexturastat A 0.003 | vemurafenib 0.011 | [11] -0.023 | [12] -0.011 | givinostat 0.052 | barasertib 0.049

OPA1 isoform 2 (UniProt O60313)
active: [3] -0.375
inactive: IRAK-1-4 Inhibitor I -0.008 | ibrutinib -0.009 | [1] -0.05 | ralimetinib 0.043 | [2] -0.201 | [4] 0.004 | pinometostat 0.03 | [6] 0.1 | [7] 0.01 | [8] -0.064 | [9] 0.027 | [10] -0.003 | Nexturastat A -0.018 | vemurafenib -0.001 | [11] 0.095 | [12] -0.002 | givinostat 0.052 | barasertib 0.045

NUP62 (UniProt P37198)
inactive: IRAK-1-4 Inhibitor I -0.022 | ibrutinib -0.03 | [1] -0.029 | ralimetinib 0.026 | [2] 0.03 | [3] -0.04 | [4] 0.009 | pinometostat 0.012 | [5] -0.052 | [6] 0.033 | [7] -0.011 | [8] 0.001 | [9] 0.022 | [10] 0.038 | Nexturastat A 0.047 | vemurafenib -0.002 | [11] 0.048 | [12] 0.003 | givinostat 0.044 | barasertib 0.07

OSTC (UniProt Q9NRP0)
active: [3] -0.377
inactive: IRAK-1-4 Inhibitor I -0.002 | ibrutinib -0.013 | [1] -0.022 | ralimetinib 0.004 | [2] -0.055 | [4] -0.046 | pinometostat -0.023 | [6] 0.119 | [7] 0.001 | [8] 0.001 | [9] 0.047 | [10] 0.058 | Nexturastat A -0.114 | vemurafenib -0.115 | [11] 0.068 | [12] -0.058 | givinostat 0.076 | barasertib 0.061

NUDCD2 (UniProt Q8WVJ2)
inactive: IRAK-1-4 Inhibitor I -0.032 | ibrutinib -0.035 | [1] -0.027 | ralimetinib 0.033 | [2] -0.045 | [3] -0.248 | [4] -0.012 | pinometostat 0.066 | [6] -0.064 | [7] -0.018 | [8] -0.109 | [9] 0.117 | [10] 0.019 | Nexturastat A 0.082 | vemurafenib -0.014 | [11] 0.008 | [12] -0.039 | givinostat 0.047 | barasertib 0.104

PAAF1 (UniProt Q9BRP4)
inactive: IRAK-1-4 Inhibitor I 0.037 | ibrutinib -0.003 | [1] -0.029 | ralimetinib 0.001 | [2] 0.007 | [3] 0.037 | pinometostat -0.026 | [6] 0.027 | [7] -0.026 | [8] -0.005 | [9] 0.016 | [10] 0.003 | Nexturastat A -0.035 | vemurafenib -0.028 | [11] 0.019 | [12] -0.038 | givinostat 0.023 | barasertib 0.021
active: [4] -0.28

NUP42 (UniProt O15504)
inactive: IRAK-1-4 Inhibitor I -0.123 | ibrutinib -0.097 | [1] 0.043 | ralimetinib 0.088 | [2] 0.209 | [3] -0.093 | [4] 0.137 | pinometostat 0.526 | [5] 0.035 | [6] -0.155 | [7] -0.004 | [8] -0.089 | [9] -0.051 | [10] -0.096 | Nexturastat A 0.363 | [11] -0.096 | [12] -0.072 | givinostat 0.05 | barasertib -0.209

NUP153 (UniProt P49790)
inactive: IRAK-1-4 Inhibitor I -0.02 | ibrutinib -0.014 | [1] -0.024 | ralimetinib 0.031 | [2] 0.068 | [3] -0.028 | [4] 0.06 | pinometostat 0.024 | [5] 0.044 | [6] 0.033 | [7] -0.014 | [8] 0.054 | [9] -0.007 | [10] 0.007 | Nexturastat A 0.081 | vemurafenib -0.027 | [11] 0.002 | [12] -0.01 | givinostat -0.007 | barasertib 0.001

OSTM1 (UniProt Q86WC4)
inactive: IRAK-1-4 Inhibitor I 0.05 | ibrutinib -0.006 | [1] 0.013 | ralimetinib 0.042 | [2] -0.081 | [3] -0.041 | [4] 0.079 | pinometostat -0.056 | [6] -0.024 | [7] -0.051 | [8] -0.047 | [9] 0 | [10] 0.056 | Nexturastat A -0.033 | vemurafenib 0.017 | [11] 0.093 | [12] -0.03 | givinostat 0.146 | barasertib -0.023

NT5DC2 isoform 2 (UniProt Q9H857)
inactive: IRAK-1-4 Inhibitor I 0.003 | ibrutinib 0.034 | [1] -0.014 | ralimetinib -0.009 | [2] -0.022 | [3] 0.081 | [4] -0.045 | pinometostat -0.036 | [5] -0.022 | [6] 0.006 | [7] 0.016 | [8] -0.001 | [9] -0.018 | [10] 0.03 | Nexturastat A -0.013 | vemurafenib 0.035 | [11] 0.036 | [12] -0.035 | givinostat -0.009 | barasertib -0.011

Reprinted at random: 2 entries already listed, in no set order.
OSTF1 (UniProt Q92882)
inactive: IRAK-1-4 Inhibitor I -0.015 | ibrutinib -0.1 | [1] -0.1 | ralimetinib 0.029 | [2] -0.048 | [3] -0.183 | [4] -0.002 | pinometostat 0.056 | [5] 0 | [6] 0.067 | [7] -0.157 | [8] 0.009 | [9] -0.039 | [10] 0.008 | Nexturastat A 0.003 | vemurafenib 0.011 | [11] -0.023 | [12] -0.011 | givinostat 0.052 | barasertib 0.049

OTUD7B (UniProt Q6GQQ9)
inactive: IRAK-1-4 Inhibitor I -0.16 | ibrutinib -0.123 | [1] -0.183 | ralimetinib 0.051 | [2] -0.092 | [3] -0.283 | [4] -0.18 | pinometostat -0.178 | [5] -0.104 | [6] 0.081 | [7] 0.041 | [8] -0.028 | [9] -0.019 | [10] -0.14 | Nexturastat A -0.03 | vemurafenib -0.001 | [11] 0.127 | [12] -0.051 | givinostat 0.133 | barasertib 0.075

Next part

NUMA1 (UniProt Q14980)
inactive: IRAK-1-4 Inhibitor I -0.107 | ibrutinib -0.051 | [1] -0.123 | ralimetinib 0.149 | [2] 0.073 | [3] -0.173 | [4] -0.02 | pinometostat 0.202 | [7] 0.03 | [8] -0.029 | [9] -0.009 | [10] -0.073 | Nexturastat A 0.262 | vemurafenib 0.02 | [11] 0.005 | [12] 0.132 | givinostat 0.092 | barasertib 0.005
active: [6] -0.58

P3H1 (UniProt Q32P28)
inactive: IRAK-1-4 Inhibitor I -0.058 | ibrutinib -0.029 | [1] 0.062 | ralimetinib 0.034 | [2] 0.049 | [3] -0.058 | [4] 0.063 | pinometostat 0.048 | [5] -0.004 | [6] 0 | [7] 0.02 | [8] -0.011 | [9] -0.043 | [10] -0.083 | Nexturastat A 0.056 | vemurafenib -0.063 | [11] -0.013 | [12] 0.034 | givinostat 0 | barasertib -0.01
